Reference: PubChem BioAssay AID1053208 (Peter MacCallum Cancer Centre, 2014)
This is one part, drawn at random, of about 17,000 reagents. In the full data, 788 (4.7%) were called active. 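Calls rest on z-score classes alone; an extra cut-off of viability at most 70% of control was not applied to them.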 Unmarked entries are inactive. Further read-outs or replicates are left out here.

Screen: 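Find knock-downs that sensitise mouse osteosarcoma cells to doxorubicin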 (primary screen)
Cells: mouse osteosarcoma cells, early-passage culture from an engineered mouse model of fibroblastic bone tumour
Knock-down reagent: siRNA pool against mouse genes, 40 nM
Duration: about 120 h (48 h before drug, then 72 h with drug)
Challenge: doxorubicin 100 nM for 72 h, roughly 30-40% inhibitory dose
Detection: 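Viability read as ATP luminescence after 72 h of 100 nM doxorubicin or none, duplicate wells averaged, scaled to non-targeting siRNA, then expressed as robust z-scores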
Scale: viability z-score with doxorubicin: higher = more viable cells under doxorubicin; viability z-score without drug: higher = more viable cells with knock-down alone
Call rule: 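a pool counts as active when its viability z-score with doxorubicin is -2 or below and its z-score without drug lies between -2 and 2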

Rpf2 (ribosome production factor 2 homolog) → combined z-score class: low cell count without drug only; viability z-score with doxorubicin: -0.56; viability z-score without drug: -3.54
Ftl2-ps (ferritin light polypeptide 2, pseudogene) → combined z-score class: no change with or without drug; viability z-score with doxorubicin: 0.11; viability z-score without drug: 0.51
Myoz1 (myozenin 1) → combined z-score class: no change with or without drug; viability z-score with doxorubicin: 0.56; viability z-score without drug: 1.35
Rab26 (RAB26, member RAS oncogene family) → combined z-score class: no change with or without drug; viability z-score with doxorubicin: -0.79; viability z-score without drug: 0.51
Or6c68 (olfactory receptor family 6 subfamily C member 68) → combined z-score class: no change with or without drug; viability z-score with doxorubicin: -1.01; viability z-score without drug: 0.17
Pitpnm3 (PITPNM family member 3) → combined z-score class: no change with or without drug; viability z-score with doxorubicin: -1.24; viability z-score without drug: -0.51
Rlim (ring finger protein, LIM domain interacting) → combined z-score class: low cell count with doxorubicin only (active); viability z-score with doxorubicin: -2.36; viability z-score without drug: -0.67
Mup1 (major urinary protein 1) → combined z-score class: no change with or without drug; viability z-score with doxorubicin: -0.22; viability z-score without drug: -0.84
Rgs6 (regulator of G-protein signaling 6) → combined z-score class: low cell count without drug only; viability z-score with doxorubicin: -0.67; viability z-score without drug: -2.7
Dusp11 → combined z-score class: no change with or without drug; viability z-score with doxorubicin: -1.01; viability z-score without drug: 0.51
Eif1b (eukaryotic translation initiation factor 1B) → combined z-score class: no change with or without drug; viability z-score with doxorubicin: 0.45; viability z-score without drug: 0
Klrc2 (killer cell lectin-like receptor subfamily C, member 2) → combined z-score class: no change with or without drug; viability z-score with doxorubicin: -0.22; viability z-score without drug: -1.35
Atp11a (ATPase, class VI, type 11A) → combined z-score class: no change with or without drug; viability z-score with doxorubicin: 0; viability z-score without drug: -0.17
Igf2bp2 (insulin-like growth factor 2 mRNA binding protein 2) → combined z-score class: no change with or without drug; viability z-score with doxorubicin: 0.67; viability z-score without drug: 0.67
Myo1e (myosin IE) → combined z-score class: no change with or without drug; viability z-score with doxorubicin: 0.67; viability z-score without drug: 1.35
Cd79a (CD79A antigen (immunoglobulin-associated alpha)) → combined z-score class: low cell count with doxorubicin only (active); viability z-score with doxorubicin: -2.7; viability z-score without drug: -0.67
Atp6v1d (ATPase, H+ transporting, lysosomal V1 subunit D) → combined z-score class: no change with or without drug; viability z-score with doxorubicin: -1.12; viability z-score without drug: 0.17
Mrgpre (MAS-related GPR, member E) → combined z-score class: no change with or without drug; viability z-score with doxorubicin: 0; viability z-score without drug: -1.18
Fnta (farnesyltransferase, CAAX box, alpha) → combined z-score class: no change with or without drug; viability z-score with doxorubicin: -1.12; viability z-score without drug: 0.84
Sp110 (Sp110 nuclear body protein) → combined z-score class: no change with or without drug; viability z-score with doxorubicin: -0.9; viability z-score without drug: 0.51
Prpf40b (pre-mRNA processing factor 40B) → combined z-score class: no change with or without drug; viability z-score with doxorubicin: 0; viability z-score without drug: -0.17
Map7d3 (MAP7 domain containing 3) → combined z-score class: high cell count without drug only; viability z-score with doxorubicin: 0.22; viability z-score without drug: 2.02
Slco4c1 → combined z-score class: no change with or without drug; viability z-score with doxorubicin: 0.9; viability z-score without drug: 0.17
Mthfsd (methenyltetrahydrofolate synthetase domain containing) → combined z-score class: no change with or without drug; viability z-score with doxorubicin: 0.45; viability z-score without drug: 1.35
Socs2 (suppressor of cytokine signaling 2) → combined z-score class: no change with or without drug; viability z-score with doxorubicin: -0.34; viability z-score without drug: 0.34
Smc2 (structural maintenance of chromosomes 2) → combined z-score class: no change with or without drug; viability z-score with doxorubicin: 0.34; viability z-score without drug: 0.17
Kif18b (kinesin family member 18B) → combined z-score class: no change with or without drug; viability z-score with doxorubicin: -0.22; viability z-score without drug: -0.51
Hoxa3 (homeobox A3) → combined z-score class: no change with or without drug; viability z-score with doxorubicin: -0.67; viability z-score without drug: 0.51

Hits, among the entries above:
Rlim (ring finger protein, LIM domain interacting) → combined z-score class: low cell count with doxorubicin only (active); viability z-score with doxorubicin: -2.36; viability z-score without drug: -0.67
Cd79a (CD79A antigen (immunoglobulin-associated alpha)) → combined z-score class: low cell count with doxorubicin only (active); viability z-score with doxorubicin: -2.7; viability z-score without drug: -0.67
